PubChem BioAssay AID1159584, Peter MacCallum Cancer Centre, 2016

Purpose: 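Knock-downs that harm CDH1-null cells more than parental MCF10A cells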 (primary screen)
System: human MCF10A breast epithelial cells, parental and CDH1-null
Reagents: siRNA against human genes
Measurement: 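Cell viability by CellTiter-Glo ATP luminescence, each line scaled to the mean of mock wells across plates, then CDH1-null over parental ratio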
Scale: CDH1-null / parental viability ratio: higher = CDH1-null cells survive relatively better than parental
Here is one part, drawn at random, of about 18,000 reagents tested. Not all columns of the deposit are shown. Not stated in the record: the amount of reagent, the time to read-out.

Knock-down of OR52E6 came out at: CDH1-null / parental viability ratio 0.96.
With knock-down of CD83, the screen gave CDH1-null / parental viability ratio 1.21.
With knock-down of DEFB135, the screen gave CDH1-null / parental viability ratio 0.84.
For CLN6, the values are CDH1-null / parental viability ratio 1.14.
Against DOCK5, the values are CDH1-null / parental viability ratio 1.2.
Against SRBD1, the entry reads CDH1-null / parental viability ratio 0.87.
Against NDNF the deposit lists CDH1-null / parental viability ratio 0.98.
SPCS3 showed CDH1-null / parental viability ratio 1.04.
DUSP5 showed CDH1-null / parental viability ratio 1.49.
Depletion of NUP58 resulted in: CDH1-null / parental viability ratio 1.12.
GALE scored CDH1-null / parental viability ratio 1.11.
For SPIN1, the entry reads CDH1-null / parental viability ratio 1.29.
For YWHAB, the entry reads CDH1-null / parental viability ratio 0.87.
Silencing of GRAP gave: CDH1-null / parental viability ratio 1.13.
Depletion of ST6GALNAC1 came out at: CDH1-null / parental viability ratio 1.55.
After knock-down of PGBD2, the screen gave CDH1-null / parental viability ratio 1.04.
NOBOX showed CDH1-null / parental viability ratio 0.8.
KCTD17 gave CDH1-null / parental viability ratio 0.99.

Records above whose gene name starts with G or g:
GALE: CDH1-null / parental viability ratio = 1.11
GRAP: CDH1-null / parental viability ratio = 1.13

Continued:
Against TRAPPC13, the entry reads CDH1-null / parental viability ratio 0.95.
C1QL1 gave CDH1-null / parental viability ratio 1.55.
With knock-down of ICAM3 the results were CDH1-null / parental viability ratio 1.13.
With knock-down of NSG1 the results were CDH1-null / parental viability ratio 1.14.
FHL3 scored CDH1-null / parental viability ratio 0.98.
With knock-down of GPC3 the results were CDH1-null / parental viability ratio 0.54.
Against KIF12, the values are CDH1-null / parental viability ratio 1.
Depletion of GATD3 resulted in: CDH1-null / parental viability ratio 0.97.
For MMAB the deposit lists CDH1-null / parental viability ratio 1.02.
Silencing of B3GAT2 resulted in: CDH1-null / parental viability ratio 1.03.
Depletion of PIERCE1 resulted in: CDH1-null / parental viability ratio 1.43.
Silencing of MS4A4A resulted in: CDH1-null / parental viability ratio 0.96.
Against MDFI, the entry reads CDH1-null / parental viability ratio 1.01.
With knock-down of PLCXD2 the results were CDH1-null / parental viability ratio 0.9.
UBE2K gave CDH1-null / parental viability ratio 1.18.
With knock-down of ZCCHC7, the screen gave CDH1-null / parental viability ratio 0.96.
With knock-down of PSMA2, the screen gave CDH1-null / parental viability ratio 1.5.
